PubChem BioAssay AID652272, Drosophila RNAi Screening Center | 2013
In all, the deposit lists about 21,000 reagents; below is a random part of those that have a named target and a result. Of all reagents, 503 (2.4%) got an active call. 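Raw plate light values, not normalised; calls rest on replicate z-scores that were not deposited; hits include reporter decreases as well as increases.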 A number with no mark means an inactive call. The numbers tell different reagents against one gene apart. Names joined by + are all predicted targets of the reagent. Not stated in the record: the amount of reagent, the time to read-out.

Purpose: 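Genes whose knock-down decreases or increases Hedgehog reporter output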 (primary screen)
System: Drosophila clone 8 (Cl8) cells
Knock-down reagent: long dsRNA against Drosophila genes
Measurement: 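Plate reader light from a firefly reporter under a ptc promoter fragment that responds to Hedgehog, with Renilla light as transfection reference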
Scale: firefly Hh reporter signal: higher = more ptc reporter light; Renilla reference signal: higher = more Renilla control light
Active means: 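Hit when the z-score averaged over two replicates is under -2 or over +3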
Meaning of the calls: active = hit: reporter lowered or raised; inactive = not a hit

| Gene | dsRNA no. | firefly Hh reporter signal, replicate 1 | firefly Hh reporter signal, replicate 2 | firefly Hh reporter signal, replicate 3 | Renilla reference signal, replicate 1 | Renilla reference signal, replicate 2 |
| --- | --- | --- | --- | --- | --- | --- |
| nuf (GeneID 39572) | 1 | 74164 | – | – | 3955 | 2224 |
| retn (GeneID 45976) | 1 | 89814 | 63168 | – | 2263 | 5464 |
| CG13228 (GeneID 36178) | 1 | 94032 | 46972 | – | 1985 | 3202 |
| CG42816 (GeneID 39977) | 1 | 94835 | – | – | 4256 | 2708 |
| CG32054 (GeneID 326185) | 1 | 34954 | 27872 | 50708 | 3048 | 3600 |
| PDZ-GEF (GeneID 33881) | 1 | 1.40e5 | 46987 | – | 3472 | 4484 |
| Eig71Ec (GeneID 39703) | 1 | 1.32e5 | – | – | 5504 | 3880 |
| CG15452 (GeneID 33061) | 1 | 75156 | 2.14e5 | – | 1656 | 8710 |
| CG34236 (GeneID 5740183) | 1 | 1.26e5 | 2.43e5 | – | 3949 | 11117 |
| CG6661 + asRNA:CR42871 | 1 | 1.16e5 | 74925 | – | 5035 | 3059 |
| Mst57Dc (GeneID 43121) | 1 | 4.63e5 | 1.60e5 | – | 22167 | 4428 |
| r (GeneID 32640) | 1 | 84517 | 2.04e5 | – | 2663 | 8512 |
| r (GeneID 32640) | 2 | 78035 | 2.18e5 | – | 2617 | 9418 |
| CG1941 (GeneID 35718) | 1 | 82070 | 45864 | – | 1812 | 3468 |
| CG33308 (GeneID 2768925) | 1 | 83108 | 1.95e5 | – | 2397 | 8736 |
| dia (GeneID 35340) | 1 | 65035 | 64757 | – | 1833 | 5958 |
| CG10713 (GeneID 39508) | 1 | 42368 | 30805 | 43090 | 2770 | 2464 |
| GstE6 (GeneID 37111) | 1 | 1.53e5 | 64103 | – | 4003 | 4965 |
| Mgat3 (GeneID 318981) | 1 | 5.12e5 | 1.89e5 | – | 25386 | 7298 |
| CG43331 (GeneID 12798459) | 1 | 1.25e5 | 1.66e5 | – | 4883 | 2720 |
| GLaz (GeneID 36447) | 1 | 67436 | 38251 | – | 1602 | 3385 |
| hng2 (GeneID 41056) | 1 | 77115 | 1.05e5 | – | 3302 | 3080 |
| mbo (GeneID 41562) | 1 | 1.19e5 | 82871 | – | 5249 | 3741 |
| SCAP (GeneID 35529) | 1 | 1.01e5 | 1.14e5 | – | 2150 | 7756 |
| SCAP (GeneID 35529) | 2 | 97959 | 72186 | – | 1654 | 6562 |
| CG32110 (GeneID 317858) | 1 | 2.22e5 | – | – | 4875 | – |
| Fbxo42 (GeneID 37532) | 1 | 63942 | 71612 | – | 2881 | 3191 |
| CG1537 (GeneID 32037) | 1 | 1.22e5 | 3.22e5 | – | 3722 | 12045 |
| Slob (GeneID 34038) | 1 | 1.56e5 | 54373 | – | 3536 | 5036 |
| Slob (GeneID 34038) | 2 | 94003 | 1.09e5 | – | 4001 | 4778 |
| CG34168 (GeneID 50457) | 1 | 1.46e5 | 1.06e5 | – | 3552 | 8186 |
| GAPcenA (GeneID 38945) | 1 | 38004 | 50988 | – | 5064 | 3677 |
| djl (GeneID 40839) | 1 | 81016 | 1.03e5 | – | 3129 | 3155 |
| CaMKI (GeneID 43792) | 1 | 1.11e5 | 83206 | – | 2672 | 2634 |
| CG32176 (GeneID 39944) | 1 | 1.91e5 | – | – | 3505 | 5445 |
| CG32176 (GeneID 39944) | 2 | 1.22e5 | – | – | 4468 | 3229 |
| CG31122 (GeneID 42221) | 1 | 1.07e5 | 4.56e5 | 74856 | 4450 | 28890 |
| CG31122 (GeneID 42221) | 2 | 6.71e5 | 1.36e5 | – | 33216 | 3627 |
| CG9270 (GeneID 35366) | 1 | 70251 | 79649 | – | 2704 | 3211 |
